Not every detail of the peptide structures is certain; ends, links or a residue may be inferred. No end group written: not given here.
Experiments:
cardiac myocytes [1] = assay: PMA-induced protection of cardiac myocytes from prolonged hypoxia, cell viability assay; type: cell-based, rat; details: peptide introduced by saponin permeabilization; 10 nM PMA 10 minutes; 9 hours of hypoxia
Protocol: (§1) Primary cell cultures were prepared as previously described (Disatnik, et al., 1994). Briefly, ventricles from day-old Sprague-Dawley rats were minced, and single isolated myocytes were obtained by alternating cycles of room temperature trypsinization and mechanical dissociation. Cells were washed and preplated in medium 199 with Hanks' salt solution (Gibco/BRL Life Technologies, Gaithersburg, Md.) containing 10% fetal bovine serum (Hyclone Laboratories, Inc., Logan, Utah) to reduce the number of contaminating non-myocardial cells (NMCs). After 30 minutes nonattached cardiac myocytes were collected and replated at a density of 800 cells per mm^2 into 8-well glass chamber slides (Nunc, Naperville, Ill.) for cell viability assays and immunofluorescence staining, into 6-well plastic culture plates (Fisher Scientific, Pittsburgh, Pa.) for lactate dehydrogenase (LDH) assays, or into 100 mm glass culture dishes for Western blot analyses. […]
Following treatment of cardiac myocytes grown on 8-well chamber slides, living and dead cells were distinguished using the "EUKOLIGHT" Viability/Cytotoxicity assay (Molecular Probes, Eugene, Oreg.). […] The number of viable (green fluorescent by calcine) and non-viable (red fluorescent by ethidium) cardiac myocytes present in 10-20 random microscopic fields per condition per experiment was recorded. […]

Sequences of proteins named here, by UniProt entry; tags and fusion partners are left off. A change or cut given only in a name is not applied to a line headed by its entry.
UniProt P09215: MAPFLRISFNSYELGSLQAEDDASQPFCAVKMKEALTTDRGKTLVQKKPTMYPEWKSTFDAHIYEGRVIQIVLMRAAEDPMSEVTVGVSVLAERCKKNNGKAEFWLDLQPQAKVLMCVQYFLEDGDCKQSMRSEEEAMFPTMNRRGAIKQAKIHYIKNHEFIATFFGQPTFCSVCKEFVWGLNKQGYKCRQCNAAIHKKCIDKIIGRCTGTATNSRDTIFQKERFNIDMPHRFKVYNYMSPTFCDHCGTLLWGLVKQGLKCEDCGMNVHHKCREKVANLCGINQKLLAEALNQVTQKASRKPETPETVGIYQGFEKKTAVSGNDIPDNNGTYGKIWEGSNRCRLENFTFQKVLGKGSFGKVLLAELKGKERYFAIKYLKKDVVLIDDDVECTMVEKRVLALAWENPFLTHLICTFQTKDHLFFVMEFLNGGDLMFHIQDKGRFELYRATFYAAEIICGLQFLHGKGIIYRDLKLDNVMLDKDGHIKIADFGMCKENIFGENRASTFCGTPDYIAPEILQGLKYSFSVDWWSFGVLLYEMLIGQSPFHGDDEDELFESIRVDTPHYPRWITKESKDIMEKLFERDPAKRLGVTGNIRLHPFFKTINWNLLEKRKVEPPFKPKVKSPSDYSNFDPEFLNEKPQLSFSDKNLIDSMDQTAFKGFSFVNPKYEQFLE
UniProt P68403, whole entry: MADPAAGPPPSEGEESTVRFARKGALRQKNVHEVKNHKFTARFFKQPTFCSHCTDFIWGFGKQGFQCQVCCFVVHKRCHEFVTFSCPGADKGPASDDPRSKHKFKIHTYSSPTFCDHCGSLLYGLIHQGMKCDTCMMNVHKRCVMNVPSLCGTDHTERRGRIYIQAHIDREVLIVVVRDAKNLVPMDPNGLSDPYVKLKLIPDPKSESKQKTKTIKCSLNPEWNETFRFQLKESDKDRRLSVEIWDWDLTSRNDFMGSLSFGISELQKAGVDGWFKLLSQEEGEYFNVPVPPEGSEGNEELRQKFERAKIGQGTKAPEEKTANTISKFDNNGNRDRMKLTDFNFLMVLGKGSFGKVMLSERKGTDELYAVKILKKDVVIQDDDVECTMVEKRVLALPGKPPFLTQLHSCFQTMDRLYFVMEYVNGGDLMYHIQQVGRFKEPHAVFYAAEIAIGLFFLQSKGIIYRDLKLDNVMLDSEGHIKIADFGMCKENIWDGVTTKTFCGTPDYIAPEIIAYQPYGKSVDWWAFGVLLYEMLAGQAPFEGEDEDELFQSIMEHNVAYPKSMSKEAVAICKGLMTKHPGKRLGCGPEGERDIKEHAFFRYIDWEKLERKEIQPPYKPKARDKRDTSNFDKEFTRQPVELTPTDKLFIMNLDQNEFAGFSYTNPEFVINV

cardiac myocytes [2] = assay: Hypoxic preconditioning-induced protection of cardiac myocytes from prolonged hypoxia, cell viability assay; type: cell-based, rat; details: peptide introduced by permeabilization; 30 minutes of hypoxia without glucose, 30 minutes recovery, 9 hours of hypoxia
cardiac myocytes [3] = assay: Effect of εV1-7 peptide on cardiac cell contraction rate; type: cell-based, rat; details: 10 μM εV1-7, then 4βPMA (3 nM)
εPKC [4] = molecular target: T1, εPKC (Homo sapiens, UniProt Q02156); assay: Peptide activation of PKC assayed by phosphorylation of substrate calsequestrin; type: biochemical; details: peptide 10 mM, εPKC ~10 nM, autoradiography
T1 sequence (Q02156 1-737): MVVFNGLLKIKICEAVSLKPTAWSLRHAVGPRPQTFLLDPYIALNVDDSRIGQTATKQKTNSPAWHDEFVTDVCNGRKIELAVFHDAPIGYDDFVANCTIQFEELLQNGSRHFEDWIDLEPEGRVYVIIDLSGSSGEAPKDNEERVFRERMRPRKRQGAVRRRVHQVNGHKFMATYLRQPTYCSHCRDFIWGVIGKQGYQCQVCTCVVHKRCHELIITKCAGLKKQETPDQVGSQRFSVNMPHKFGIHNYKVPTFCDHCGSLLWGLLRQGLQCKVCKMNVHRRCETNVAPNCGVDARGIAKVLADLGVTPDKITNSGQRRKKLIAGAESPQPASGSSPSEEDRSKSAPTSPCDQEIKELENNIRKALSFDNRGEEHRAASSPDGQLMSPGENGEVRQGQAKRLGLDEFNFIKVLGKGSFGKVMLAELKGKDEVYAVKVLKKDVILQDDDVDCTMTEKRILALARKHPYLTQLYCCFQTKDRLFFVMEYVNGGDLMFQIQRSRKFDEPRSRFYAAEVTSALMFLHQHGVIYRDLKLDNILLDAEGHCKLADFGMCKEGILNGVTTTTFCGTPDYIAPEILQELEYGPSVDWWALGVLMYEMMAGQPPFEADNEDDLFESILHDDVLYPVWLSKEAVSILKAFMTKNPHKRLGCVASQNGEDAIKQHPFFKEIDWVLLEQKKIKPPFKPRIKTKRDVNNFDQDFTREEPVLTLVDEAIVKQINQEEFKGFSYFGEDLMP

δPKC = molecular target: T2, δPKC (Rattus norvegicus, UniProt P09215); assay: Peptide-induced translocation of PKC in cardiac myocytes; type: cell-based; details: transient saponin permeabilization
T2 construct: Western Blot of cardiac myocyte soluble and particulate fractions; endogenous in cells; host or cells: primary neonatal Sprague-Dawley rat ventricular myocytes

βPKC = molecular target: T3, βPKC (Rattus norvegicus, UniProt P68403); assay: as above; type: cell-based; details: transient saponin permeabilization
T3 construct: the subcellular localization of various PKC isozymes was determined; endogenous in cells; host or cells: primary neonatal Sprague-Dawley rat ventricular myocytes, saponin-permeabilized

εPKC [5] = molecular target: T4, εPKC (Rattus norvegicus, UniProt P09216); assay: as above; type: cell-based; details: transient saponin permeabilization
T4 construct: Western Blot of cardiac myocyte soluble and particulate fractions; endogenous in cells; host or cells: primary neonatal Sprague-Dawley rat ventricular myocytes
T4 sequence (P09216 1-737): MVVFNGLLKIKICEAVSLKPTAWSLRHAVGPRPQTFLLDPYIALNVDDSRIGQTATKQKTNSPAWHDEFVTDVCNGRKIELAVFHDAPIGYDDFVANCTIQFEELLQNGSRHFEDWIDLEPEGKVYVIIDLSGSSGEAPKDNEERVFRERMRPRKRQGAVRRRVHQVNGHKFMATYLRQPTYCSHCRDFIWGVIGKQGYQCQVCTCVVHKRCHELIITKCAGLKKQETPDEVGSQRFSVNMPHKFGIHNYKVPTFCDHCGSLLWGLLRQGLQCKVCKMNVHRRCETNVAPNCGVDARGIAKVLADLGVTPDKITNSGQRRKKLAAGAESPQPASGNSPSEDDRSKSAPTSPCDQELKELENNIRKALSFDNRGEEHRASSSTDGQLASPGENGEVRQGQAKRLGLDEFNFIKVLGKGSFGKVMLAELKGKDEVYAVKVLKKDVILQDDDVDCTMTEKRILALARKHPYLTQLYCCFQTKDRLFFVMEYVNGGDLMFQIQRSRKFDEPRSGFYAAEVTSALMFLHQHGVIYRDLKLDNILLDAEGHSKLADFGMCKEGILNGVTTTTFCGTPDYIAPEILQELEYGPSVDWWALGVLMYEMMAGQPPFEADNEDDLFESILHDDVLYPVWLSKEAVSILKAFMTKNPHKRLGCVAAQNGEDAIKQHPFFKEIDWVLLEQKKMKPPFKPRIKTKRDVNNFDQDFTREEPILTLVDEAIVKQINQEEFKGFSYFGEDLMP
Protocol: as §1
Immunofluorescence staining of cardiac myocytes grown on 8-well glass chamber slides was carried out as previously described (Hauser, et al., 1993). […] Images were recorded on Kodak TMAX 400 film with exposure time of 1 second for all photomicrographs and were processed by an automated, commercial developer without additional adjustment. […]

Substance: EAVSLKPT [εV1-2]
- effect on PMA-induced protection from hypoxia (cell viability) (cardiac myocytes [1]): Protection was abolished
- effect on hypoxic preconditioning-induced protection (cell viability) (cardiac myocytes [2]): Protection was abolished

Substance: HDAPIGYD [εV1-7]
- εPKC-mediated slowing of contraction rate (cardiac myocytes [3]): acts synergistically with PMA
- activation of εPKC measured by phosphorylation of calsequestrin (εPKC [4]): caused an activation of εPKC

Substance: SVEIWD [βC2-6]
- translocation of δPKC (δPKC): not εPKC or δPKC
- translocation of βPKC (βPKC): caused selective translocation
- effect on localization of εPKC versus control cells (εPKC [5]): did not significantly altered the localization

Source: US6165977A, “Isozyme-specific activators of protein kinase C methods and compositions” (Board of Trustees of the Leland Stanford Junior University, priority 1997, dated 2000)
